# Source: the supplement of paper PMC11732987, “Enantioselective OTUD7B fragment discovery through chemoproteomics screening and high-throughput optimisation” (Communications Chemistry, 2025)
# Chains of the proteins cited; added tags and fusions are not shown. Lines headed by an entry give the natural chain unless they say otherwise; changes in a name come on top.
# UniProt Q9Y512: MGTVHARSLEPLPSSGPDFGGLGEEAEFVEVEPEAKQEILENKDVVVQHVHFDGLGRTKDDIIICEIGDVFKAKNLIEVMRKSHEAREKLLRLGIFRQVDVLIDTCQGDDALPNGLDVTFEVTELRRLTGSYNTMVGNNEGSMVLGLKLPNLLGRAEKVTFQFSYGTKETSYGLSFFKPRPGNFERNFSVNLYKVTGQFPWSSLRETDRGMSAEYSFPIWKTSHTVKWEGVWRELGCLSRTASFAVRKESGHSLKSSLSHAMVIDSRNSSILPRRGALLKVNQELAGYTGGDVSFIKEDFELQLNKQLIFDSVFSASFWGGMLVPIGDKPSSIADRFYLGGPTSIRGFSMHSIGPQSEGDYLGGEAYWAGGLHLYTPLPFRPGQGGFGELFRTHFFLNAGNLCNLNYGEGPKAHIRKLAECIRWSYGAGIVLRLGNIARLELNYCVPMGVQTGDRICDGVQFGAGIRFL
# UniProt O94885: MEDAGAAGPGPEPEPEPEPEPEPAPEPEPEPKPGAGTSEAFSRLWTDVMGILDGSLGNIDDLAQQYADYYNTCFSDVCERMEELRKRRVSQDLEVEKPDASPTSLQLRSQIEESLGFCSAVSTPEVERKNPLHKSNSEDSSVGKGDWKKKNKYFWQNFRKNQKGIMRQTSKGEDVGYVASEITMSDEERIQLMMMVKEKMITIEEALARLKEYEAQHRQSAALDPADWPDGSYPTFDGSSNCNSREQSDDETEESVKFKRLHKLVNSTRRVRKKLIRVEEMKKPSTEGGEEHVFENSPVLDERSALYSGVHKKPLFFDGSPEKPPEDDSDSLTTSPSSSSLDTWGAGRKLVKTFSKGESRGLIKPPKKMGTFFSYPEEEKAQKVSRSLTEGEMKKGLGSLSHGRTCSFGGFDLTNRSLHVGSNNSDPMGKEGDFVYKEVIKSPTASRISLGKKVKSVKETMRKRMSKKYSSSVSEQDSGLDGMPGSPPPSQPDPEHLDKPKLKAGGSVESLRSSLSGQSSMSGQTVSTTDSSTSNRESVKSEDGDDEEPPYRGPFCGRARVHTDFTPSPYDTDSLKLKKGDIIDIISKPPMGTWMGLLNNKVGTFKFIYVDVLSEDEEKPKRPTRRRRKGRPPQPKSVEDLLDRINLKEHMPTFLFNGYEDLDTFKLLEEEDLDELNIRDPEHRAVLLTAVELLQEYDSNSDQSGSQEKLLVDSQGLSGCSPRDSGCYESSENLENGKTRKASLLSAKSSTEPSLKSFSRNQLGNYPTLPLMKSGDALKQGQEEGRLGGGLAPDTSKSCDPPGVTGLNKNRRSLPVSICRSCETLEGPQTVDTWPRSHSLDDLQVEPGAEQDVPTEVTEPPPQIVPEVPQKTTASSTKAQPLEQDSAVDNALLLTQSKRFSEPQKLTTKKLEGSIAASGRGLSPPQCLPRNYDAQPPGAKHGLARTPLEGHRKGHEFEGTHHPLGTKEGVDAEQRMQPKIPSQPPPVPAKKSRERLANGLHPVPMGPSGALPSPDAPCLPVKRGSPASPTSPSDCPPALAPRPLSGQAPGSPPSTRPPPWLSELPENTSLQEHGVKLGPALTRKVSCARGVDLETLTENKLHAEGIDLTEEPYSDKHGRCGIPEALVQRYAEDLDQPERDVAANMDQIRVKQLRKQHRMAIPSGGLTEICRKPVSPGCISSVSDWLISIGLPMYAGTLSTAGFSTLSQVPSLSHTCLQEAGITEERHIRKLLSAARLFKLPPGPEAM
# UniProt Q96FV2: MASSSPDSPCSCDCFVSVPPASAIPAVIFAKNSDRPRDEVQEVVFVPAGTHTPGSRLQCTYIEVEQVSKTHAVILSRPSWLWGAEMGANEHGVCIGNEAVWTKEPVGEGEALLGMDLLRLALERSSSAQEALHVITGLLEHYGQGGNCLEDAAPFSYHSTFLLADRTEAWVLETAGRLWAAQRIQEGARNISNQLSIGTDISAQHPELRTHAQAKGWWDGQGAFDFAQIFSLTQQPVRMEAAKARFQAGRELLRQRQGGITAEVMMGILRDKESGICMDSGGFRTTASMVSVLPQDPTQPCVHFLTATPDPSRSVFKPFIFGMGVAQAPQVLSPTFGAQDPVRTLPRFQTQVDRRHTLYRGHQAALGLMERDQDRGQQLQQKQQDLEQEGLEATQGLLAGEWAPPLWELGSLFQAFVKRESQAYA
# UniProt Q9UGP8: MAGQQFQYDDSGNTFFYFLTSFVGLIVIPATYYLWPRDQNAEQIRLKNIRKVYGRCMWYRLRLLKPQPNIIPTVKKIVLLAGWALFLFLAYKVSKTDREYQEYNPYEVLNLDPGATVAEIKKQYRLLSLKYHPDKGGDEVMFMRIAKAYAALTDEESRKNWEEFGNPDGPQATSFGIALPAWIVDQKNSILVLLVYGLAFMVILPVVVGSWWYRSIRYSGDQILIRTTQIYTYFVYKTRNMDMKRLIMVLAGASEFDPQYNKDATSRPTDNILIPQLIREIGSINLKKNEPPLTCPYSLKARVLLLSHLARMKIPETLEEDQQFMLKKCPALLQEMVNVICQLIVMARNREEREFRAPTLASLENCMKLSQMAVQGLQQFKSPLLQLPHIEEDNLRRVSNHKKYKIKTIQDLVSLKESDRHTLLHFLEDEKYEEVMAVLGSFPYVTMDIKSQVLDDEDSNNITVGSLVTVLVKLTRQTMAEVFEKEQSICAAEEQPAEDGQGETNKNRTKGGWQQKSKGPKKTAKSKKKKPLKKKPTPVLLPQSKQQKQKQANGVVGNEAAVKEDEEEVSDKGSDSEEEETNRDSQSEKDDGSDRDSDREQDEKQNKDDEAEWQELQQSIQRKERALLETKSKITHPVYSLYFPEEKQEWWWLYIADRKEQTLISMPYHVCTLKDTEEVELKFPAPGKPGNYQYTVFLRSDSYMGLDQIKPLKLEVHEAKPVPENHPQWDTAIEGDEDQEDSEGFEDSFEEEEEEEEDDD
# UniProt Q9UPS6: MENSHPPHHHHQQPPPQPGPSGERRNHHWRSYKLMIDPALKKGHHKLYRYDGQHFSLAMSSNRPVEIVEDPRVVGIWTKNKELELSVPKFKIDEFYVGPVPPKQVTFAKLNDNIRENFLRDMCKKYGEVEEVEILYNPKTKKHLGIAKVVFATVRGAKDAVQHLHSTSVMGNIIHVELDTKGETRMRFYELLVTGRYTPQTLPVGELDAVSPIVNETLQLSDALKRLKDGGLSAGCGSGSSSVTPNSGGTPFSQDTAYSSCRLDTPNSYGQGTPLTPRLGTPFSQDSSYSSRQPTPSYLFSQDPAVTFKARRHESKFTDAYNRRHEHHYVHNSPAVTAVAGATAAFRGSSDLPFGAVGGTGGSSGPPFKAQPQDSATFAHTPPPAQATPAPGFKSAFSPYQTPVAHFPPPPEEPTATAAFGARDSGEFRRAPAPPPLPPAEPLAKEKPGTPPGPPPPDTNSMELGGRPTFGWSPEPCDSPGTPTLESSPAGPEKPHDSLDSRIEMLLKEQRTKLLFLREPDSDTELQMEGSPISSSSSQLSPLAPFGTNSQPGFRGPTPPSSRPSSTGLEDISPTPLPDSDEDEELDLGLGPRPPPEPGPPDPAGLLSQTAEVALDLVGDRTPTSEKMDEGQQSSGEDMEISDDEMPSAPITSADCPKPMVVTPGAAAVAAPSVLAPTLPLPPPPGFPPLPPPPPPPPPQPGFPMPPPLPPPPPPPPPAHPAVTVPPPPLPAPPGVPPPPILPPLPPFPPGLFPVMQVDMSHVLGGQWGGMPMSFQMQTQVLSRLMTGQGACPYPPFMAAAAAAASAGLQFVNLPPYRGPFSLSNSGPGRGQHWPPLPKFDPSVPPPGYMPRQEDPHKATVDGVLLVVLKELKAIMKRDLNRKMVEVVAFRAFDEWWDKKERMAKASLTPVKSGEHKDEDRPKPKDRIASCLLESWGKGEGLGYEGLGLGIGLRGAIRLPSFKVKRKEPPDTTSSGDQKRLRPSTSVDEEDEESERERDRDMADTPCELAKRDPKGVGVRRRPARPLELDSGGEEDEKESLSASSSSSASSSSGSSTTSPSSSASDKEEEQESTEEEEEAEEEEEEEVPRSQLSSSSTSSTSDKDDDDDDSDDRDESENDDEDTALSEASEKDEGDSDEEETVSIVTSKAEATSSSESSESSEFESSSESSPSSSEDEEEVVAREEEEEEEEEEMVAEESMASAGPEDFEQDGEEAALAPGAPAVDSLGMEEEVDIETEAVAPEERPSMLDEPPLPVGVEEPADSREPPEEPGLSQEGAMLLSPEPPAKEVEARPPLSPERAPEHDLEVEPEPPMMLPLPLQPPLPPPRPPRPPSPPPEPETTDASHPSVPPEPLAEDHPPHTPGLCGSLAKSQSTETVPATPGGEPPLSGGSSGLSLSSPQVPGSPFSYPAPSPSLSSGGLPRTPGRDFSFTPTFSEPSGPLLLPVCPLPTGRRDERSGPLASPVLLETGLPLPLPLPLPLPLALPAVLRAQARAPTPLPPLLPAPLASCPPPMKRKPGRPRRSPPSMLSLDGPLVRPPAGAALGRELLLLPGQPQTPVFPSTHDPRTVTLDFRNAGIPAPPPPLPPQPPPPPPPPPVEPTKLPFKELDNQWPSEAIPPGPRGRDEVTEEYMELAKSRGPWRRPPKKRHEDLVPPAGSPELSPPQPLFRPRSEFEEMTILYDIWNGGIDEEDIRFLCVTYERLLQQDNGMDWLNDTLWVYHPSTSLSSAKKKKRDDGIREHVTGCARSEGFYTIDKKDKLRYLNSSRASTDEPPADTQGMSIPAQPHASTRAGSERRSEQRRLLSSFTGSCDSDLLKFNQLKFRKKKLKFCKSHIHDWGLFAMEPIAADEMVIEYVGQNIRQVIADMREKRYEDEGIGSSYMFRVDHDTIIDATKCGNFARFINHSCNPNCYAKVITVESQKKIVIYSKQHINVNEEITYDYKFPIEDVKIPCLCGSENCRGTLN
# UniProt Q9GZR1: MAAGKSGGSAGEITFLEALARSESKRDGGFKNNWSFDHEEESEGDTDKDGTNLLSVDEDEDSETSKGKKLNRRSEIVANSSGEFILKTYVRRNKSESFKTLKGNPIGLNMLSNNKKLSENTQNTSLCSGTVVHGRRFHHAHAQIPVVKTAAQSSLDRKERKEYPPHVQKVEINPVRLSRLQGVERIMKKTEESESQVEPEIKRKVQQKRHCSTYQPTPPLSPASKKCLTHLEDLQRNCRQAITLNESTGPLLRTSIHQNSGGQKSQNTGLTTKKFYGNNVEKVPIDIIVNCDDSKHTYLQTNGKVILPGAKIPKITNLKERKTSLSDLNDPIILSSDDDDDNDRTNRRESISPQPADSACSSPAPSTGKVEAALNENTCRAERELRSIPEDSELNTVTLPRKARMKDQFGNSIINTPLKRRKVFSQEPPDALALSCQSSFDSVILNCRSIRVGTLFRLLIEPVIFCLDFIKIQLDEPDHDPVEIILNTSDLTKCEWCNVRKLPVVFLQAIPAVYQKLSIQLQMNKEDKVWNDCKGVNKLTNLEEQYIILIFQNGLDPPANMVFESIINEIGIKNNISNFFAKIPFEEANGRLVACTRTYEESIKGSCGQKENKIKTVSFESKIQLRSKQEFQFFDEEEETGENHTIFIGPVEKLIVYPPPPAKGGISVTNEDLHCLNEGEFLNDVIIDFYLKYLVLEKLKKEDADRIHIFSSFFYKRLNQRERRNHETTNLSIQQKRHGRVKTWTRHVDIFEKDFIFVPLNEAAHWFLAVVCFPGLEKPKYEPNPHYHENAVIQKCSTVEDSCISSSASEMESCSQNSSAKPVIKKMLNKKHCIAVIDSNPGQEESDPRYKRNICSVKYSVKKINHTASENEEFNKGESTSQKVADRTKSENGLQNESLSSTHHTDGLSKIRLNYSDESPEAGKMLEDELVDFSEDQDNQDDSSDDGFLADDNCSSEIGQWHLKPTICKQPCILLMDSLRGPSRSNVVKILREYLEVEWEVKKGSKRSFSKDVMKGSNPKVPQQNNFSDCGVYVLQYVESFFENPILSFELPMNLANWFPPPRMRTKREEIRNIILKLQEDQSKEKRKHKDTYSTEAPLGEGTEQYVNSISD
# UniProt Q9UHR5: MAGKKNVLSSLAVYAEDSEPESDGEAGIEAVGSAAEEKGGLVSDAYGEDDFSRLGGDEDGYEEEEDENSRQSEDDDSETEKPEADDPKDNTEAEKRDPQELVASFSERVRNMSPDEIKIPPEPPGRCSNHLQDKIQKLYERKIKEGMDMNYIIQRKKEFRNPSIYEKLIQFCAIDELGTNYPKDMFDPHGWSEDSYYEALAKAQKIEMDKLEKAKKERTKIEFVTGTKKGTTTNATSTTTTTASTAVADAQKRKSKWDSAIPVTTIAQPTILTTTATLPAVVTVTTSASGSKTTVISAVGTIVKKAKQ
# The other results are listed elsewhere or left out. The data scatter; read single values as rough.
# Compound: ClCC(=O)N[C@H]1CCCc2ccccc12
# Assay: log2 mean competition ratio of IA-DTB cysteine labelling (DMSO/compound) (log2 ratio); higher = stronger cysteine engagement by compound
# Settings: 50 µM; treatment time: 4 h; cell line lysate: HEK293T
# Method: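 IA-DTB competitive cysteine chemoproteomics in HEK293T RIPA lysate. Lysates were treated with compound 29 or 30 at 50 or 200 µM for 4 h, then IA-DTB (500 µM, 1 h), trypsin-digested, NeutrAvidin-enriched and analysed by diaPASEF. Competition ratio = intensity DMSO / intensity compound (n=4 treated, n=64 DMSO); binding: mean log2 CR ≥ 1 and p ≤ 0.05 plus QC filters. Target is the cysteine site.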
row,Target,log2 mean competition ratio
1,SAMM50 C237 (UniProt Q9Y512),0.249
2,SEC23A C61 (UniProt Q15436),-0.438
3,SHMT2 C412,-0.0863
4,SH3D19 C718 (UniProt Q5HYK7),0.166
5,SASH1 C1120 (UniProt O94885),0.4
6,SCRN2 C277 (UniProt Q96FV2),-0.405
7,SF3B1 C1244 (UniProt O75533),0.493
8,SEC63 C295 (UniProt Q9UGP8),0.18
9,SH3GL1 C96 (UniProt Q99961),0.356
10,SGO2 C582 (UniProt Q562F6),0.0375
11,SETD1B C1007 (UniProt Q9UPS6),0.0337
12,SENP6 C833 (UniProt Q9GZR1),0.149
13,SAMM50 C457 (UniProt Q9Y512),-0.0583
14,SHPRH C688 (UniProt Q149N8),0.184
15,SAP30BP C127 (UniProt Q9UHR5),0.0703
16,SHKBP1 C550 (UniProt Q8TBC3),-0.0535
17,SH3PXD2B C783 (UniProt A1X283),0.231
18,SAMM50 C65 (UniProt Q9Y512),-0.247
19,SFXN4 C70 (UniProt Q6P4A7),0.189
20,SBNO1 C626 (UniProt A3KN83),0.0784

# Same assay, conditions: 200 µM; treatment time: 4 h; cell line lysate: HEK293T
row,Target,log2 mean competition ratio
1,SAMM50 C237 (UniProt Q9Y512),-0.226
2,SEC23A C61 (UniProt Q15436),0.109
3,SHMT2 C412,-0.0862
4,SH3D19 C718 (UniProt Q5HYK7),-0.238
5,SASH1 C1120 (UniProt O94885),0.183
6,SCRN2 C277 (UniProt Q96FV2),-0.116
7,SF3B1 C1244 (UniProt O75533),-0.271
8,SEC63 C295 (UniProt Q9UGP8),0.779
9,SH3GL1 C96 (UniProt Q99961),0.391
10,SGO2 C582 (UniProt Q562F6),-0.0301
11,SETD1B C1007 (UniProt Q9UPS6),0.115
12,SENP6 C833 (UniProt Q9GZR1),0.127
13,SAMM50 C457 (UniProt Q9Y512),-0.0809
14,SHPRH C688 (UniProt Q149N8),0.223
15,SAP30BP C127 (UniProt Q9UHR5),-0.0108
16,SHKBP1 C550 (UniProt Q8TBC3),0.396
17,SH3PXD2B C783 (UniProt A1X283),0.0504
18,SAMM50 C65 (UniProt Q9Y512),-0.055
19,SFXN4 C70 (UniProt Q6P4A7),0.167
20,SBNO1 C626 (UniProt A3KN83),0.00275
